Experimental data from article PMC8943206.

Protein sequences, listed by entry. Tags and fused reporters are not part of them.
UniProt Q8N884, whole entry: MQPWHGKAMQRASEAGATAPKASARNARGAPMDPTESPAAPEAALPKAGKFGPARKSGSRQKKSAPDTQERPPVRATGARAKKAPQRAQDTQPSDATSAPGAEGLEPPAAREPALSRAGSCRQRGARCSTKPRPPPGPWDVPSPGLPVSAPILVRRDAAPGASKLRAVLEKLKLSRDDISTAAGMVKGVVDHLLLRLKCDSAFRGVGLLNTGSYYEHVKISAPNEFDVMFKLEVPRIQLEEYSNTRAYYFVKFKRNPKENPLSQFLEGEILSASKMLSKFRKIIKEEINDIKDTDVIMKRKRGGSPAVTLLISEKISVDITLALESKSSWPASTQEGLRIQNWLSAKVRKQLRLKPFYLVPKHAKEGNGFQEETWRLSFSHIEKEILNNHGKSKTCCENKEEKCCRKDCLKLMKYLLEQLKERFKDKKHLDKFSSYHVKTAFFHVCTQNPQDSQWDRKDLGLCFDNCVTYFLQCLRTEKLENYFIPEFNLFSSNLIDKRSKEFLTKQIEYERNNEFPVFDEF

Molecular target: GFP-cGAS (human) (UniProt Q8N884)
Assay: in vitro phase separation (co-condensation)
Conditions: recombinant protein, protein details: GFP, C-terminal 6xHis (pET-28a)

**Q.** Does “AGACGGTATATTTTTGCGTTATCACTGTCCCGGATTGGACACGGTCTTGTGGGATAGGCATGCCCAGAAGGCATATTGGGTTAACCCCTTTTTATTTGTGGCGGGTTTTTTGGAGGACTT (double strand) [HSV120]” bind (HSV120 2.5 uM, 5 min incubation (Fig. S8a). The SPR data are protein-protein (cGAS-PCBP2) and were left out)?
**A.** binds

**Q.** Does “CCATCAGAAAGAGGTTTAATATTTTTGTGAGACCATGGAAGAGAGAAAGAGATAAAACTTTTTTACGACT (double strand) [VACV70]” bind (indirect read-out: cGAS-DNA droplets, reduced by PCBP2 but not by KH3-deleted PCBP2, label: Cy3 at 5' end of sense strand when labelled)?
**A.** binds

**Q.** Does “TACAGATCTACTAGTGATCTATGACTGATCTGTACATGATCTACA (double strand) [ISD45]” bind (indirect read-out: cGAS-DNA droplets, reduced by PCBP2 but not by KH3-deleted PCBP2, HSV120 2.5 uM, 5 min incubation (Fig. S8a). The SPR data are protein-protein (cGAS-PCBP2) and were left out, label: Cy3 at 5' end of sense strand when labelled)?
**A.** binds

Read-outs that look alike come from different tables or passages of the source. Construct, isoform or probe ends are uncertain for at least one entry. At least one verdict was read from the data and is not stated in words by the source.
